Assay results as given in patent US20230034474A1.
Residue numbers refer to the chain shown, from its start. Results are given in words; binding and its absence hold for the method and conditions named. Some binding calls cover weakened binding; strength is not graded here.

B1: ACI-8037-103H5-Ab2 (antibody, mouse IgG2a, kappa, V domains shown)
VH: QVTLKESGPGILKPSQTLSLTCSFSGFSLSTSGMGVGWIRQPSGKGLEWLAHIWWDDDKYYNPSLKSRLTISKDSSRNQVFLKITSVDTADTATYYCVRRGTRLEDYFDFWGQGTTLTVSS
VL: DVLMTQTPLSLPVSLGDQASISCRSSRSIVHSNGNTYLEWYLQKPGQSPKLLIFKVSNRFSGVPDRFSGSGSGTDFTLKISRVEAEDQGVYYCFQGSHVPLTFGAGTKLELKR
B2: ACI-8037-109F4-Ab1 (antibody, mouse IgG2a, kappa, V domains shown)
VH: QVTLKESGPGILQPSQTLSLTCSFSGFSLSTSGMGVSWIRQPSGKGLEWLAHIYWDDDKRYNPSLKSRLTISKDTSRNQVFLKITSVDTADAGTYYCARRPIRTVVDAMDYWGQGTSVTVSL
VL: B1 VL with R27Q, S28T, K50N, F54Y, Q88L

Key:
[1] = molecular target: full-length sAPPalpha fragment (UniProt P05067); assay: indirect ELISA, sAPPalpha coated; +++ = high binding
[2] = molecular target: full-length sAPPalpha fragment (UniProt P05067); assay: ELISA, cross-reactivity to sAPPalpha

Binder	binding [1]	binding [2]
B1	binds	binds
B2	binds	binds
